This assay has as its target p53 (human (endogenous in SW1990)) (UniProt P04637). As to the kind of experiment: co-IP; immunoprecipitation of p53 or of KRAS from SW1990 cells with or without LINC00431 overexpression, hypoxia for 12 h, MG132 (1 μg/mL) in the last 2 h; TRAF7 immunoblotted. A general note: A western blot detects proteins with antibodies after separation by electrophoresis.

Results are given in words; binding and its absence hold for the method and conditions named. In cells and extracts the contact can be indirect. Some entries that bind do so weakly or less than the wild type.

B1: tumor necrosis factor receptor-associated factor 7 (TRAF7) (protein, UniProt Q6Q0C0 1-670)
chain: MSSGKSARYNRFSGGPSNLPTPDVTTGTRMETTFGPAFSAVTTITKADGTSTYKQHCRTPSSSSTLAYSPRDEEDSMPPISTPRRSDSAISVRSLHSESSMSLRSTFSLPEEEEEPEPLVFAEQPSVKLCCQLCCSVFKDPVITTCGHTFCRRCALKSEKCPVDNVKLTVVVNNIAVAEQIGELFIHCRHGCRVAGSGKPPIFEVDPRGCPFTIKLSARKDHEGSCDYRPVRCPNNPSCPPLLRMNLEAHLKECEHIKCPHSKYGCTFIGNQDTYETHLETCRFEGLKEFLQQTDDRFHEMHVALAQKDQEIAFLRSMLGKLSEKIDQLEKSLELKFDVLDENQSKLSEDLMEFRRDASMLNDELSHINARLNMGILGSYDPQQIFKCKGTFVGHQGPVWCLCVYSMGDLLFSGSSDKTIKVWDTCTTYKCQKTLEGHDGIVLALCIQGCKLYSGSADCTIIVWDIQNLQKVNTIRAHDNPVCTLVSSHNVLFSGSLKAIKVWDIVGTELKLKKELTGLNHWVRALVAAQSYLYSGSYQTIKIWDIRTLDCIHVLQTSGGSVYSIAVTNHHIVCGTYENLIHVWDIESKEQVRTLTGHVGTVYALAVISTPDQTKVFSASYDRSLRVWSMDNMICTQTLLRHQGSVTALAVSRGRLFSGAVDSTVKVWTC
Regarding B1, the binding entry is “binds”.

The record behind these values is article PMC12466122.
